In publication PMC11847324, “A communication hub for phosphoregulation of kinetochore-microtubule attachment” (Current biology : CB, 2024):

B1: GST fusion of Mps1 217–267 (domain or fragment)
chain: GSGGSGGSGGSGGSDYDSIDFGDLNPIQYIKKHNLPTSDLPLISQIYFDKQREENRQAALRKHSS
B2: GST fusion of Mps1 354–424 (domain or fragment)
chain: GSGGSGGSGGSGGSSEKREVLRNISINANHADNLLQQENKRLKRSLDDAITNENINSKNLEVFYHRPAPKPPVTKKVEIVEPAKS

Target: Ndc80c^dwarf with a 6-His affinity tag on the N-terminus of Ndc80 (S. cerevisiae)
Test: pull-down; Ndc80c^dwarf (6-His on the N-terminus of Ndc80) immobilised to saturation on Ni-NTA agarose, incubated 30 min with the GST fusion of an Mps1 segment eluted from glutathione agarose; 20 mM HEPES pH 7.2, 150 mM NaCl, 2 mM imidazole, 2 mM TCEP; eluted with 500 mM imidazole, SDS-PAGE; both purified

Binder	binding
GSGGSGGSGGSGGSERRSKRFLISNRTTKLGPAKR (domain or fragment) [GST fusion of Mps1 151–171]	binds
GSGGSGGSGGSGGSSDDEEFTTPPKLSNFGSALLSHTEKTS (domain or fragment) [GST fusion of Mps1 22–46]	no binding
B1	no binding
B2	no binding

These are yes or no findings as the source states them, for the method shown. Binding can be weak; no strength is given. Sequences can lack the tags named with a protein.
